# Earlier results, collected in patent US20030104507A1, “Method for detection of ATP” (priority 2001, published 2003).
# Amino acid sequences for entries named in this document (tags omitted).
# UniProt P08659, whole entry: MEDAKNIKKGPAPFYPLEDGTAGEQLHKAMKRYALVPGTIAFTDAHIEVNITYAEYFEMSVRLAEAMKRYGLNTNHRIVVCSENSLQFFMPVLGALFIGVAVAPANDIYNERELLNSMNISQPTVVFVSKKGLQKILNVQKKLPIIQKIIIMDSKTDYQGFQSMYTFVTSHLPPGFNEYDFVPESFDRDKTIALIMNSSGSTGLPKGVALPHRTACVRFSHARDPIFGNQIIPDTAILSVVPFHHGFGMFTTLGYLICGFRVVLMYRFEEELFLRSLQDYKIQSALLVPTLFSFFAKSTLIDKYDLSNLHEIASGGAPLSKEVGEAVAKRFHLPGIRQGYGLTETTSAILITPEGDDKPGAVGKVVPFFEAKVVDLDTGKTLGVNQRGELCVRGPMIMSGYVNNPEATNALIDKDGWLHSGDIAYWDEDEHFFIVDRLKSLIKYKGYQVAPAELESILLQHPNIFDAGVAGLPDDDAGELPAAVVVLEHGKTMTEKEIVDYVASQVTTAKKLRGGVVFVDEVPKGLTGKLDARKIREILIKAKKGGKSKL
# Target: native firefly luciferase (Photinus pyralis, UniProt P08659)
# Details: cited from earlier work
smiles,measurement,value
CC(C)(C)CC(C)(C)c1ccc(OCCOCC[N+](C)(C)Cc2ccccc2)cc1 [benzethonium chloride],effect on native firefly luciferase,inactivated
